Results are given in words; binding and its absence hold for the method and conditions named. In cells and extracts the contact can be indirect. Some entries that bind do so weakly or less than the wild type.
Target: T1, METTL14 (mouse retina) (mouse (endogenous in retina)) (UniProt Q3UIK4)
T1 sequence: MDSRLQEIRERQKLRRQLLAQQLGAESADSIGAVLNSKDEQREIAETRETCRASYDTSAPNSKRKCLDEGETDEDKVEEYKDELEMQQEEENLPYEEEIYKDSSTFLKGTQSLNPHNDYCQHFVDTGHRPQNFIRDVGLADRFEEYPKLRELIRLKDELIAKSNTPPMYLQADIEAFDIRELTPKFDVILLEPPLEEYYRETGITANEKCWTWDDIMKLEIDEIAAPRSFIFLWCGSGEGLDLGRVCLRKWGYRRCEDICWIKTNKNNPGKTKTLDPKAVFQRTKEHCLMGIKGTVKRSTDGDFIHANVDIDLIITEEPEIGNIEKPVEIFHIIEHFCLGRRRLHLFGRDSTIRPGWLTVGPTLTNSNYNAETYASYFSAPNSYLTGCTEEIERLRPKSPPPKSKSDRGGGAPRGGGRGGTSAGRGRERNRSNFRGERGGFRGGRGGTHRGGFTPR
Assay: co-IP; retinas of mice (in vivo); Western blotting

B1: BARD1 (mouse retina) (protein, UniProt O70445 1-765)
chain: MPRRPPRVCSGNQPAPVPAMEPATDGLWAHSRAALARLEKLLRCSRCANILKEPVCLGGCEHIFCSGCISDCVGSGCPVCYTPAWILDLKINRQLDSMIQLSSKLQNLLHDNKDSKDNTSRASLFGDAERKKNSIKMWFSPRSKKVRYVVTKVSVQTQPQKAKDDKAQEASMYEFVSATPPVAVPKSAKTASRTSAKKHPKKSVAKINREENLRPETKDSRFDSKEELKEEKVVSCSQIPVMERPRVNGEIDLLASGSVVEPECSGSLTEVSLPLAEHIVSPDTVSKNEETPEKKVCVKDLRSGGSNGNRKGCHRPTTSTSDSCGSNIPSTSRGIGEPALLAENVVLVDCSSLPSGQLQVDVTLRRKSNASDDPLSLSPGTPPPLLNNSTHRQMMSSPSTVKLSSGMPARKRNHRGETLLHIASIKGDIPSVEYLLQNGNDPNVKDHAGWTPLHEACSHGHLKVVELLLQHNALVNTPGYQNDSPLHDAVKSGHIDIVKVLLSHGASRNAVNIFGVRPVDYTDNENIRSLLLLPEENESFSTSQCSIVNTGQRKNGPLVFIGSGLSSQQQKMLSKLETVLKAKKCMEFDSTVTHVIVPDEEAQSTLKCMLGILSGCWILKFDWVKACLDSKVREQEEKYEVPGGPQRSRLNREQLLPKLFDGCYFFLGGNFKHHPRDDLLKLIAAAGGKVLSRKPKPDSDVTQTINTVAYHAKPESDQRFCTQYIVYEDLFNCHPERVRQGKVWMAPSTWLISCIMAFELLPLDS
binding: binds

Source: PMC12036877
